Small differences around the control level are noise.
Key:
Test in all cases: normalised response (% of control), CellTox Green; higher = less cell death (100 = DMSO, 0 = benzethonium chloride kill control)
Settings in all cases: incubation time: 72 h
HCC1599 [1] = test system: HCC1599
Method: (§1)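 DSRT, 72 h incubation, CellTox Green / CellTiter-Glo readout. Signal is normalised to DMSO and benzethonium chloride controls. Value is the normalised response at dose 2.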

Hs578T [2] = test system: Hs578T
Method: as §1

BT-474 [3] = test system: BT-474
Method: as §1

HCC1143 [4] = test system: HCC1143
Method: as §1

MDA-MB-231 [5] = test system: MDA-MB-231
Method: as §1

MFM-223 [6] = test system: MFM-223
Method: as §1

CAL-51 [7] = test system: CAL-51
Method: as §1

DU-4475 [8] = test system: DU-4475
Method: as §1

MDA-MB-453 [9] = test system: MDA-MB-453
Method: as §1

BT-549 [10] = test system: BT-549
Method: as §1

HCC1937 = test system: HCC1937
Method: as §1

CAL-120 [11] = test system: CAL-120
Method: as §1

CAL-85-1 [12] = test system: CAL-85-1
Method: as §1

CAL-148 [13] = test system: CAL-148
Method: as §1

HDQ-P1 [14] = test system: HDQ-P1
Method: as §1

MDA-MB-436 = test system: MDA-MB-436
Method: as §1

MDA-MB-468 [15] = test system: MDA-MB-468
Method: as §1

MCF-10A [16] = test system: MCF-10A
Method: as §1

HCC1599 [17] = test system: HCC1599; remark: listed apart in the source
Method: (§2)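 DSRT, 72 h incubation, CellTox Green / CellTiter-Glo readout. Signal is normalised to DMSO and benzethonium chloride controls. Value is the normalised response at the lowest tested concentration.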

Hs578T [18] = test system: Hs578T; remark: listed apart in the source
Method: as §2

BT-474 [19] = test system: BT-474; remark: listed apart in the source
Method: as §2

HCC1143 [20] = test system: HCC1143; remark: listed apart in the source
Method: as §2

MDA-MB-231 [21] = test system: MDA-MB-231; remark: listed apart in the source
Method: as §2

MFM-223 [22] = test system: MFM-223; remark: listed apart in the source
Method: as §2

CAL-51 [23] = test system: CAL-51; remark: listed apart in the source
Method: as §2

DU-4475 [24] = test system: DU-4475; remark: listed apart in the source
Method: as §2

MDA-MB-453 [25] = test system: MDA-MB-453; remark: listed apart in the source
Method: as §2

BT-549 [26] = test system: BT-549; remark: listed apart in the source
Method: as §2

CAL-120 [27] = test system: CAL-120; remark: listed apart in the source
Method: as §2

CAL-85-1 [28] = test system: CAL-85-1; remark: listed apart in the source
Method: as §2

CAL-148 [29] = test system: CAL-148; remark: listed apart in the source
Method: as §2

MDA-MB-468 [30] = test system: MDA-MB-468; remark: listed apart in the source
Method: as §2

HDQ-P1 [31] = test system: HDQ-P1; remark: listed apart in the source
Method: as §2

MCF-10A [32] = test system: MCF-10A; remark: listed apart in the source
Method: as §2

Compound | normalised response (HCC1599 [1]) | normalised response (Hs578T [2]) | normalised response (BT-474 [3]) | normalised response (HCC1143 [4]) | normalised response (MDA-MB-231 [5]) | normalised response (MFM-223 [6]) | normalised response (CAL-51 [7]) | normalised response (DU-4475 [8]) | normalised response (MDA-MB-453 [9]) | normalised response (BT-549 [10]) | normalised response (HCC1937) | normalised response (CAL-120 [11]) | normalised response (CAL-85-1 [12]) | normalised response (CAL-148 [13]) | normalised response (HDQ-P1 [14]) | normalised response (MDA-MB-436) | normalised response (MDA-MB-468 [15]) | normalised response (MCF-10A [16]) | normalised response (HCC1599 [17]) | normalised response (Hs578T [18]) | normalised response (BT-474 [19]) | normalised response (HCC1143 [20]) | normalised response (MDA-MB-231 [21]) | normalised response (MFM-223 [22]) | normalised response (CAL-51 [23]) | normalised response (DU-4475 [24]) | normalised response (MDA-MB-453 [25]) | normalised response (BT-549 [26]) | normalised response (CAL-120 [27]) | normalised response (CAL-85-1 [28]) | normalised response (CAL-148 [29]) | normalised response (MDA-MB-468 [30]) | normalised response (HDQ-P1 [31]) | normalised response (MCF-10A [32])
Cn1cc(C2=Nc3cc(NC(=O)C(N)C4CCCCC4)cc4c3C2=CNNC4=O)cn1 (stereo unspecified) (10 nM) | 94.4% | 117% | 96.1% | 80.5% | 86.1% | 98.1% | 103% | 92.8% | 90% | 108% | 96.5% | 96.5% | 100% | 93.5% | 104% | 75% |  |  |  |  |  |  |  |  |  |  |  |  |  |  |  |  |  | 
CNC(=O)c1cccc(-c2ccc3c(N4CCOC[C@@H]4C)nc(N4CCOC[C@@H]4C)nc3n2)c1 [AZD2014] (10 nM) | 109% |  | 104% |  | 118% | 97.6% | 111% | 105% | 106% | 104% | 95.5% | 99.7% | 104% | 101% | 119% | 74% | 96.1% | 105% |  |  |  |  |  |  |  |  |  |  |  |  |  |  |  | 
CO[C@H]1/C=C\C=C(/C)C(=O)NC2=CC(=O)C(NCCN(C)C)=C(C[C@@H](C)C[C@H](OC)[C@H](O)[C@@H](C)/C=C(\C)[C@@H]1OC(N)=O)C2=O [Alvespimycin] (1 nM) | 114% | 120% | 101% | 118% | 110% | 92.1% | 112% | 107% | 104% | 96% | 63.9% | 104% | 97.7% | 106% | 124% | 99.2% |  | 100% |  |  |  |  |  |  |  |  |  |  |  |  |  |  |  | 
O=C(O)CCCCC(CCSCc1ccccc1)SCc1ccccc1 (stereo unspecified) [CPI-613] (10 nM) | 104% |  | 101% | 65.1% | 104% | 99.5% | 97.4% | 100% | 94.8% | 84.7% | 108% | 102% | 98.8% | 75.2% | 119% |  | 96.7% | 82.5% |  |  |  |  |  |  |  |  |  |  |  |  |  |  |  | 
CNC(=O)c1ccc(N2C(=S)N(c3ccc(C#N)c(C(F)(F)F)c3)C(=O)C2(C)C)cc1F [Enzalutamide] (10 nM) | 106% |  | 104% | 110% | 106% | 83.9% | 109% | 97% | 105% | 79.8% | 113% | 95.6% | 104% | 111% | 98.2% | 99.7% | 82.9% | 103% |  |  |  |  |  |  |  |  |  |  |  |  |  |  |  | 
C[C@]12CC[C@@H]3c4ccc(OC(=O)N(CCCl)CCCl)cc4CC[C@H]3[C@@H]1CC[C@@H]2O [Estramustine] (10 nM) | 93.5% |  | 98.3% | 67% | 91.3% | 89.1% | 86.9% | 94.2% | 71.4% | 115% | 100% | 101% | 93.2% | 105% | 114% | 93.8% |  | 105% |  |  |  |  |  |  |  |  |  |  |  |  |  |  |  | 
Cc1cnc(NC(=O)Nc2cc(Br)c(C)cc2OC[C@@H]2CNCCO2)cn1 [Rabusertib] (1 nM) | 122% | 110% | 104% | 119% |  | 103% | 115% | 118% | 106% | 95.3% | 102% | 104% | 102% | 113% | 112% | 108% |  | 118% |  |  |  |  |  |  |  |  |  |  |  |  |  |  |  | 
CN1CCN(CCOc2cc(OC3CCOCC3)c3c(Nc4c(Cl)ccc5c4OCO5)ncnc3c2)CC1 [Saracatinib] (1 nM) |  |  |  |  |  |  |  |  |  |  |  |  |  |  |  |  |  |  | 94% | 97.7% | 97.4% | 115% | 89.9% | 95.8% | 102% | 97.5% | 102% | 79.6% | 99% | 103% | 98.9% | 69% | 93.9% | 93%
CS(=O)(=O)c1ccc(C(=O)Nc2ccc(Cl)c(-c3ccccn3)c2)c(Cl)c1 [Vismodegib] (10 nM) | 92.8% | 111% | 99.8% | 108% | 96.3% | 101% | 97.1% | 96.2% | 93.7% | 90.9% |  | 97.9% | 101% | 95.4% | 105% | 104% |  | 98.8% |  |  |  |  |  |  |  |  |  |  |  |  |  |  |  | 
